PubChem BioAssay AID1224828 | NIAID | 2016

Assay: 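Regulators linking TLR4 signalling to p65 nuclear translocation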 (primary screen)
Cell system: mouse RAW264.7 G9 macrophage reporter cells (GFP-p65, Tnf promoter-mCherry)
Reagents: siRNA pool against mouse genes, 100 nM
Time to read-out: 2 days siRNA transfection, then 40 min LPS before fixation
Challenge: LPS (Salmonella minnesota R595) at 10 ng/ml
Read-out: 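Imaged p65 nuclear translocation ratio, normalised to the plate median, converted to robust z-scores and averaged across two replicates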
Reading the numbers: p65 translocation robust z-score: higher = more nuclear NF-kappaB p65 after LPS than the plate median; nuclear/cytoplasmic p65 ratio: higher = more nuclear NF-kappaB p65
Call rule: 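Called active when z exceeds 3.3 or falls under -1.56 (median of Tlr4 controls), giving activity score of at least 50; no calls for control wells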
Meaning of the calls: active = hit (p65 shift raised or lowered); inactive = no clear change
This is one part, drawn at random, of about 17,000 reagents. Over the whole deposit, 762 (4.5%) were called active. 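Active calls include both raised and lowered p65 entry, mostly lowered; wells with fewer than 50 cells lack a z-score.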 The raw values are shown without normalisation. Reagents against one gene are numbered here.

target gene	reagent no.	p65 translocation robust z-score	nuclear/cytoplasmic p65 ratio, rep 1	nuclear/cytoplasmic p65 ratio, rep 2	low cell count flag	Call
Kif26b	1	-1.3	1.39	1.35	enough cells to score	inactive
Kif26b	2		1.48	1.44	fewer than 50 cells per well; well left out of scoring	inactive
Cimip2a	1		1.02	1.02	fewer than 50 cells per well; well left out of scoring	inactive
Noc2l	1	-1.66	1.25	1.54	enough cells to score	active
Or9s13	1	-1.8	1.43	1.19	enough cells to score	active
Rhov	1	-0.04	1.49	1.53	enough cells to score	inactive
Pbrm1	1	-0.47	1.32	1.41	enough cells to score	inactive
Fbxl4	1	0.43	1.5	1.44	enough cells to score	inactive
Rps9	1	0.22	1.76	1.53	enough cells to score	inactive
Bub1	1	-1.59	1.45	1.17	enough cells to score	active
Tmem178	1		1.49	1.57	fewer than 50 cells per well; well left out of scoring	inactive
Zp2	1	0.7	1.66	1.66	enough cells to score	inactive
Smc1a	1		0	1.37	fewer than 50 cells per well; well left out of scoring	inactive
Ifi27l2b	1		1.61	1.58	fewer than 50 cells per well; well left out of scoring	inactive
Syngr4	1	1.84	1.6	1.39	enough cells to score	inactive
Mab21l3	1	-0.37	1.44	1.87	enough cells to score	inactive
Sin3a	1	0.35	1.59	1.61	enough cells to score	inactive
Abce1	1	-0.09	1.65	1.61	enough cells to score	inactive
Psmb4	1	-3.4	0.983	1	enough cells to score	active
Sh3tc1	1		1.18	1.11	fewer than 50 cells per well; well left out of scoring	inactive
Vmn1r203	1	-0.08	1.38	1.22	enough cells to score	inactive
Sh3kbp1	1	0.78	1.59	1.74	enough cells to score	inactive
Myc	1	0.15	1.47	1.36	enough cells to score	inactive
Kalrn	1		1.16	1.07	fewer than 50 cells per well; well left out of scoring	inactive
Grm6	1		1.58	1.79	fewer than 50 cells per well; well left out of scoring	inactive
Ptger3	1		1.47	1.51	fewer than 50 cells per well; well left out of scoring	inactive
Myct1	1	0.34	1.84	1.64	enough cells to score	inactive
Or2y3	1	0.98	1.6	1.69	enough cells to score	inactive
Tyk2	1	0.2	1.85	1.31	enough cells to score	inactive
Haus3	1	1.39	1.81	2.05	enough cells to score	inactive
Josd1	1	-0.12	1.48	1.73	enough cells to score	inactive
Or5p64	1		1.37	1.27	fewer than 50 cells per well; well left out of scoring	inactive
Sdc1	1	0.5	1.5	1.26	enough cells to score	inactive
Wdr55	1	-1.23	1.22	1.32	enough cells to score	inactive
Cyp3a13	1	-0.3	1.53	1.73	enough cells to score	inactive
Timm23	1	0.71	1.48	1.25	enough cells to score	inactive
Mrps11	1	0.21	1.43	1.37	enough cells to score	inactive
Dynll2	1	-0.04	1.58	1.64	enough cells to score	inactive
Cmtm2a	1	0.52	1.72	1.81	enough cells to score	inactive
Dpp3	1	-0.84	1.32	1.31	enough cells to score	inactive
Prdm9	1	-0.9	1.34	1.81	enough cells to score	inactive
Tgfb3	1	-0.72	1.46	1.38	enough cells to score	inactive
Eng	1	-0.02	1.42	1.4	enough cells to score	inactive
Or1q1	1	-2.49	1.23	1.27	enough cells to score	active
Tspan3	1		1.35	1.11	fewer than 50 cells per well; well left out of scoring	inactive
Itm2c	1	0.23	1.61	1.44	enough cells to score	inactive
Zfp94	1	-0.69	1.42	1.4	enough cells to score	inactive
Dnajc30	1	0.46	1.52	1.26	enough cells to score	inactive
Gtf3c1	1	0.76	1.51	1.45	enough cells to score	inactive
Ndc1	1		1.25	1.1	fewer than 50 cells per well; well left out of scoring	inactive
Slc4a2	1		0	1.13	fewer than 50 cells per well; well left out of scoring	inactive
Isyna1	1	0.29	1.69	1.38	enough cells to score	inactive
Ptprt	1	-0.32	1.7	1.29	enough cells to score	inactive
Nsmaf	1	-0.48	1.35	1.38	enough cells to score	inactive
Or13a25	1	-0.72	1.34	1.01	enough cells to score	inactive
Pdgfb	1		1.12	1.18	fewer than 50 cells per well; well left out of scoring	inactive
Endog	1		1.49	1.34	fewer than 50 cells per well; well left out of scoring	inactive
Or8b46	1	1.58	1.72	1.36	enough cells to score	inactive
Smu1	1	-0.24	1.21	1.2	enough cells to score	inactive
Ttc39b	1		1.69	1.46	fewer than 50 cells per well; well left out of scoring	inactive
Taf1b	1	0.75	1.58	1.66	enough cells to score	inactive
Selenbp2	1	1.04	1.64	1.76	enough cells to score	inactive
Atp2a2	1	0.21	1.66	1.63	enough cells to score	inactive
Tmprss6	1		1.47	1.37	fewer than 50 cells per well; well left out of scoring	inactive
Amd2	1	-1.44	1.36	1.49	enough cells to score	inactive
Rpl6	1		1.71	1.2	fewer than 50 cells per well; well left out of scoring	inactive
Pfdn5	1	-1.15	1.39	1.18	enough cells to score	inactive
Pfdn5	2	-0.6	1.32	1.34	enough cells to score	inactive
Or2ag15	1		1.27	1.26	fewer than 50 cells per well; well left out of scoring	inactive
Kcnk7	1	0.48	1.62	1.5	enough cells to score	inactive
3110009E18Rik	1		1.32	1.14	fewer than 50 cells per well; well left out of scoring	inactive
Sh2d7	1		1.22	1.42	fewer than 50 cells per well; well left out of scoring	inactive
Taf8	1		1.37	0.98	fewer than 50 cells per well; well left out of scoring	inactive
Etfb	1	-0.81	1.3	1.31	enough cells to score	inactive
Ppp1r42	1	-0.66	1.31	1.22	enough cells to score	inactive

Active calls (from the list above):
target gene	reagent no.	p65 translocation robust z-score	nuclear/cytoplasmic p65 ratio, rep 1	nuclear/cytoplasmic p65 ratio, rep 2	low cell count flag	Call
Noc2l	1	-1.66	1.25	1.54	enough cells to score	active
Or9s13	1	-1.8	1.43	1.19	enough cells to score	active
Bub1	1	-1.59	1.45	1.17	enough cells to score	active
Psmb4	1	-3.4	0.983	1	enough cells to score	active
Or1q1	1	-2.49	1.23	1.27	enough cells to score	active
